Assay results reported in patent publication US6472198B1, “Slow release substrates for driving microbial transformations of environmental contaminants” (The State of Oregon Acting by and through the State Board …, priority 1998, dated 2002).

What was measured:
[1] = system: enriched culture from activated aerobic sludge; experiment: Aerobic biodegradation microcosms with enriched TBOS utilizing culture; format: cell-based; conditions: for aerobic biological degradation (in words): enriched culture from activated sludge
[2] = system: microbial culture grown on TBOS; experiment: Aerobic cometabolism of TCE by microorganisms grown on TBOS; format: cell-based
Description: Gas phase TCE and cis-DCE concentrations were measured by injecting 10-100 μL of a gaseous sample into a HP-5890 gas chromatograph connected to a photoionization detector (PID) followed by a flame ionization detector (FID). Chromatographic separation was carried-out with a 30-m megabore GSQ-PLOT column from J&W Scientific (Folsom, Calif.). The GC operating conditions were as follows: injector temperature, 250° C.; detector temperature: 280° C.; the column was initially maintained at 40° C. for 2 minutes and then heated to 220° C. at 15° C./minute.
The microcosms for aerobic cometabolism studies were carried out as described in Example 1 under the heading “Aerobic Biodegradation.” The bacterial culture used was that described in Example 1 under the heading “Enrichment of Aerobic Culture.” cis-DCE and TCE stocks in water were prepared by saturating distilled water with cis-DCE and TCE at 30° C. […]
Microbial culture from the wastewater treatment plant of Corvallis, Oregon grown on TBOS was tested for its ability to cometabolize TCE and cis-DCE. […] Three microcosms and a control were evaluated: a poisoned control (i.e., a killed microcosm) with TBOS and TCE; a biologically active microcosm with TBOS and TCE; and a resting cell microcosm with only TCE; and an acetylene block microcosm with TBOS and TCE (having acetylene in the head space). […]

Row | SMILES | CO2 produced with each addition of TBOS ([1]; 100 mg/L TBOS additions, aerobic, enriched culture) | average ratio of CO2 produced per TBOS degraded ([1]; aerobic microcosm, enriched culture) | time in which three additions of 100 mg/L were utilized ([1]; biologically active culture, aerobic) | aerobic biological degradation (in words) [1] | TBOS degradation in TCE microcosm (in words) ([2]; TBOS 20 mg/L, 12 μmol) | TBOS degradation in the presence of acetylene (in words) ([2]; acetylene-blocked microcosm)
1 | CCCCO[Si](OCCCC)(OCCCC)OCCCC [No. 2, Tetrabutoxysilane] | Approximately 600 μmoles | 10 moles of CO2 per mole of TBOS | ≤ 30 days | completely mineralized to carbon dioxide | completely degraded | not inhibited
2 | CCC(CC)CO[Si](OCC(CC)CC)(OCC(CC)CC)OCC(CC)CC [No. 3, Tetrakis(2-ethylbutoxy) silane] | – | – | – | complete biological degradation occurred | – | –
